The other results are listed elsewhere or left out.
Key:
Test in all cases: log2 fold change, soluble protein after heating vs DMSO (PISA); higher = thermal stabilisation; K562 lysate, 10 uM; active = over 0.2 and 3.5 SD of the protein, either way, in both replicates (recomputed)
vemurafenib = compound: CCCS(=O)(=O)Nc1ccc(F)c(C(=O)c2c[nH]c3ncc(-c4ccc(Cl)cc4)cc23)c1F [vemurafenib]
In short: (§1)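 Quantification was by TMTpro 16plex LC-MS/MS with equalised channel sums, applied to the supernatant after 21,000xg for 90 min. Samples were crude K562 extract at 1 mg/mL protein in PBS pH 7.4 with 1 mM MgCl2, treated with 10 μM compound for 30 min, heated for 3 min across 48°C-58°C, pooled and brought to 0.5% NP-40 at 4°C. Values are log-two fold changes in thermal stability relative to solvent controls, from duplicates.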

By UniProt entry, the sequences of proteins in these tests, tags left out. Where a name states a change or a piece, a line headed by the entry shows the natural chain unless it says otherwise.
UniProt P16422: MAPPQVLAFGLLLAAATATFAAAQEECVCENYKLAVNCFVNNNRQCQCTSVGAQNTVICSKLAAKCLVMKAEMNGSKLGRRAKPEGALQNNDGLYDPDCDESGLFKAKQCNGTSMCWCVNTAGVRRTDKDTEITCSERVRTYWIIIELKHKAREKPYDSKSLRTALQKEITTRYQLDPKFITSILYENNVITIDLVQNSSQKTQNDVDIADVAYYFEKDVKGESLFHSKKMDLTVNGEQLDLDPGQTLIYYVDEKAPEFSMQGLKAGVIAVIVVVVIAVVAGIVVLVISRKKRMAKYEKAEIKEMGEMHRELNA
UniProt O94919: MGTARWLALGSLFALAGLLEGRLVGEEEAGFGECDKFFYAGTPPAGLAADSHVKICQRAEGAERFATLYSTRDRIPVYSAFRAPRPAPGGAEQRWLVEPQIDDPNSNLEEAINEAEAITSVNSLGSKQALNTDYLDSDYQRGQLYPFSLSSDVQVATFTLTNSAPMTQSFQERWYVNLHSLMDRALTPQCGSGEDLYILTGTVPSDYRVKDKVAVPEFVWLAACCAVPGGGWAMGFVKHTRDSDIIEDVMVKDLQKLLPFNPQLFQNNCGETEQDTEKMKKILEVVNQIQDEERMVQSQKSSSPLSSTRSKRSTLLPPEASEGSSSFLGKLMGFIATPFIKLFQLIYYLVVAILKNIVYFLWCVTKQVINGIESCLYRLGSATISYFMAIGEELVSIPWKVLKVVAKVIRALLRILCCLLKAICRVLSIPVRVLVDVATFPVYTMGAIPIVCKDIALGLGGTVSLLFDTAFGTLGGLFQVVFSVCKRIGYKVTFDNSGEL
UniProt Q92556, whole entry, looked up: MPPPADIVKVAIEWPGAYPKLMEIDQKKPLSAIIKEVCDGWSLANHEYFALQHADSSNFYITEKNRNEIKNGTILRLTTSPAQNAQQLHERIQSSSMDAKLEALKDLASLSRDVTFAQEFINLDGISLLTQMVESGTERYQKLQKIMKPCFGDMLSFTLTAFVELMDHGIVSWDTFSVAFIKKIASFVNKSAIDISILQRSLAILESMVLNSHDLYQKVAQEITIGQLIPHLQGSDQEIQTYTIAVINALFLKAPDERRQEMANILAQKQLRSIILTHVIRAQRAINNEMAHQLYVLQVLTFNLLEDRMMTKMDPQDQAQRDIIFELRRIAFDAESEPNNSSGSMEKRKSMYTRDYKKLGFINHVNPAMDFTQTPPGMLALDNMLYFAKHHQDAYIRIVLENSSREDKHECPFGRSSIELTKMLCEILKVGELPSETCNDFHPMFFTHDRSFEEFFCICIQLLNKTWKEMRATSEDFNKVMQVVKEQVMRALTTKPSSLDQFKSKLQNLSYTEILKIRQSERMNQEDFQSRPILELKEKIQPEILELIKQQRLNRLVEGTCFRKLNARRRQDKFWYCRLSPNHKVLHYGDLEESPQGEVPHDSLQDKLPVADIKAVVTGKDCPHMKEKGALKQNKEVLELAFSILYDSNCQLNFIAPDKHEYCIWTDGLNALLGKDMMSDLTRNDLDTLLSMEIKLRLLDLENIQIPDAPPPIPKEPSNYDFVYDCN
UniProt P54760: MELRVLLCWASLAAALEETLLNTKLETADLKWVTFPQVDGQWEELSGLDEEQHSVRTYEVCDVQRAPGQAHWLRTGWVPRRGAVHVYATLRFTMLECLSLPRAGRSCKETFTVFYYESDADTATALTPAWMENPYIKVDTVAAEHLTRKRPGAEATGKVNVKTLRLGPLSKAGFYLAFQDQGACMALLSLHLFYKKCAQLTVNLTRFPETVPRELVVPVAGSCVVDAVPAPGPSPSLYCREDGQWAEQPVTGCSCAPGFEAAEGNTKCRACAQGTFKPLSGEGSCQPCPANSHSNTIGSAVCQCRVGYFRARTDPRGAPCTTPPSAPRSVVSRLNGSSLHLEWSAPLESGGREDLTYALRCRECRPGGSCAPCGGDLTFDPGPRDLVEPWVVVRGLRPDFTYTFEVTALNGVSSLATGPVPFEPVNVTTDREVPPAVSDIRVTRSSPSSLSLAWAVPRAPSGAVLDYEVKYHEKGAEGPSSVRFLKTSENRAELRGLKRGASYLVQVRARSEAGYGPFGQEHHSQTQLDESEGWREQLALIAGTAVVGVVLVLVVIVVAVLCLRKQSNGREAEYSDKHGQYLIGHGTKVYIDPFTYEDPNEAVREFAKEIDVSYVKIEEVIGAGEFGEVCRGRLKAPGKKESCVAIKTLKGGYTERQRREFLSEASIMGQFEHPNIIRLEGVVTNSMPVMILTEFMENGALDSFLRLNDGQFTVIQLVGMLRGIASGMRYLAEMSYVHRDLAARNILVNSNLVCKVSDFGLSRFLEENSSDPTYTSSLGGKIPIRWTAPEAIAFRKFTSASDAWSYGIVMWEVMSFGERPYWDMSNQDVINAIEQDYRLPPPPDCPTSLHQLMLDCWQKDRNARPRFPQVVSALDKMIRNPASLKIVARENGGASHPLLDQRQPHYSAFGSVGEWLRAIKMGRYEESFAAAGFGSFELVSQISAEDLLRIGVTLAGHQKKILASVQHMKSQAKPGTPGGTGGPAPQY
UniProt Q9BQI3, whole entry, looked up: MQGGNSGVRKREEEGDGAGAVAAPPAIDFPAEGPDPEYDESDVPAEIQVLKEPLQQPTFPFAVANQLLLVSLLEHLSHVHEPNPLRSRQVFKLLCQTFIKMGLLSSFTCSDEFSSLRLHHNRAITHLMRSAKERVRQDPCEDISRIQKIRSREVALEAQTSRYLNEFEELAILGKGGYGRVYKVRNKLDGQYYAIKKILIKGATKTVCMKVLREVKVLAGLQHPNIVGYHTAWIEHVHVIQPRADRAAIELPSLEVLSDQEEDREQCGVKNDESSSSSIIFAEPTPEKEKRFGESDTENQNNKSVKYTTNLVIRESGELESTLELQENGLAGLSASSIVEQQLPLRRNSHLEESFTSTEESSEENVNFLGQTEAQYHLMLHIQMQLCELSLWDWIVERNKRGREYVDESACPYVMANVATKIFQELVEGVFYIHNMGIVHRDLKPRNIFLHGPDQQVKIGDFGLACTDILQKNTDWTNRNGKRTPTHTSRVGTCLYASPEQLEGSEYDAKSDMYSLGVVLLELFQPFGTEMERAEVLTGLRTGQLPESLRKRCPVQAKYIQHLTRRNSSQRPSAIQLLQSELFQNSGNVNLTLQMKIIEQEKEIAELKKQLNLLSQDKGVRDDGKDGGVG
UniProt P55884, whole entry, looked up: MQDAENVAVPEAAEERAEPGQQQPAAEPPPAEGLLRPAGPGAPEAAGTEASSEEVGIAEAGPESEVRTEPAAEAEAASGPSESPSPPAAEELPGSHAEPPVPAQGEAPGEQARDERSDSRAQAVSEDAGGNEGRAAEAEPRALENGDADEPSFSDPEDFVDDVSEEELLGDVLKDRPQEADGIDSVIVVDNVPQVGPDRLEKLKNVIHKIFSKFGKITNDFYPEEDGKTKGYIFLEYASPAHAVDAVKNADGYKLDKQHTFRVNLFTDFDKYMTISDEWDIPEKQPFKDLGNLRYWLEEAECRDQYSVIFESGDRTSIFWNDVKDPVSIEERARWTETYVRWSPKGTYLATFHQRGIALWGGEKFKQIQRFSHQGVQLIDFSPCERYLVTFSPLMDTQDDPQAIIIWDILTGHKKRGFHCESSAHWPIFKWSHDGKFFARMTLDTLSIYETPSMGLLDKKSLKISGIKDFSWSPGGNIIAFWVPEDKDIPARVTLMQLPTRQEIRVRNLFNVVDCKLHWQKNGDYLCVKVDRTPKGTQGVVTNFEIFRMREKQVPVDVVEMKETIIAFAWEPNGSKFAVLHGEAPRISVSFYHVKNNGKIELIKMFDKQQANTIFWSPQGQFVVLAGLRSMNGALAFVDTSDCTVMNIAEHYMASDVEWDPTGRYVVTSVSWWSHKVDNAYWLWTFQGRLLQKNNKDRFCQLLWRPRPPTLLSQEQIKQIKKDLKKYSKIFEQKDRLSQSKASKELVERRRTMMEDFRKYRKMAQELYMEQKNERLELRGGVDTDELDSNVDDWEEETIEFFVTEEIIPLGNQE
UniProt Q92979: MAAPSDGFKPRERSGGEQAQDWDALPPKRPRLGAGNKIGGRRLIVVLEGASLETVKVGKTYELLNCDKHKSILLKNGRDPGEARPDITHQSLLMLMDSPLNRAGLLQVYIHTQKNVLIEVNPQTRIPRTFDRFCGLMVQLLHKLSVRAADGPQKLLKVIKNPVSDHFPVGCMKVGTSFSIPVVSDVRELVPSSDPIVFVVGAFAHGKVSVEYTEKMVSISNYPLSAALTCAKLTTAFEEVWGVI
UniProt P19447: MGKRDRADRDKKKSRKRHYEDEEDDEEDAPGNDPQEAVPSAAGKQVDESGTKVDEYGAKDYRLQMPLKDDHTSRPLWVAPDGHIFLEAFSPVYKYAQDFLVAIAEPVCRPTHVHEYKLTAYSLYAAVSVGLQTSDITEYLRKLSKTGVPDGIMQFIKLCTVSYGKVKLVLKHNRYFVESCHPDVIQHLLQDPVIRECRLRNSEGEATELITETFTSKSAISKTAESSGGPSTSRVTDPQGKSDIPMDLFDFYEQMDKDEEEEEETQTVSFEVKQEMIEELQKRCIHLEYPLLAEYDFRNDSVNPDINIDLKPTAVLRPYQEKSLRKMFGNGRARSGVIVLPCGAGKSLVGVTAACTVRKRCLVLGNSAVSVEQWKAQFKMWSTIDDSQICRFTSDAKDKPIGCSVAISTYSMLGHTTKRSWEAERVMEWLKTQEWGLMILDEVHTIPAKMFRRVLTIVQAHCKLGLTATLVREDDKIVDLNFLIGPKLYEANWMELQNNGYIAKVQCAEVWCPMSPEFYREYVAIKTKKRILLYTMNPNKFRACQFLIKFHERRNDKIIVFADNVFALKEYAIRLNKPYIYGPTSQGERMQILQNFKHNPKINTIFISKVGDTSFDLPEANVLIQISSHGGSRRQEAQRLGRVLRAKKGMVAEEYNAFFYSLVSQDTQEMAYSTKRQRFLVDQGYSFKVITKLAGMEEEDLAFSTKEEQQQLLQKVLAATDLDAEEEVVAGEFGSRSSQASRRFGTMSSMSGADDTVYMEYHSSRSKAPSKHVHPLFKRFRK
UniProt O43491, whole entry, looked up: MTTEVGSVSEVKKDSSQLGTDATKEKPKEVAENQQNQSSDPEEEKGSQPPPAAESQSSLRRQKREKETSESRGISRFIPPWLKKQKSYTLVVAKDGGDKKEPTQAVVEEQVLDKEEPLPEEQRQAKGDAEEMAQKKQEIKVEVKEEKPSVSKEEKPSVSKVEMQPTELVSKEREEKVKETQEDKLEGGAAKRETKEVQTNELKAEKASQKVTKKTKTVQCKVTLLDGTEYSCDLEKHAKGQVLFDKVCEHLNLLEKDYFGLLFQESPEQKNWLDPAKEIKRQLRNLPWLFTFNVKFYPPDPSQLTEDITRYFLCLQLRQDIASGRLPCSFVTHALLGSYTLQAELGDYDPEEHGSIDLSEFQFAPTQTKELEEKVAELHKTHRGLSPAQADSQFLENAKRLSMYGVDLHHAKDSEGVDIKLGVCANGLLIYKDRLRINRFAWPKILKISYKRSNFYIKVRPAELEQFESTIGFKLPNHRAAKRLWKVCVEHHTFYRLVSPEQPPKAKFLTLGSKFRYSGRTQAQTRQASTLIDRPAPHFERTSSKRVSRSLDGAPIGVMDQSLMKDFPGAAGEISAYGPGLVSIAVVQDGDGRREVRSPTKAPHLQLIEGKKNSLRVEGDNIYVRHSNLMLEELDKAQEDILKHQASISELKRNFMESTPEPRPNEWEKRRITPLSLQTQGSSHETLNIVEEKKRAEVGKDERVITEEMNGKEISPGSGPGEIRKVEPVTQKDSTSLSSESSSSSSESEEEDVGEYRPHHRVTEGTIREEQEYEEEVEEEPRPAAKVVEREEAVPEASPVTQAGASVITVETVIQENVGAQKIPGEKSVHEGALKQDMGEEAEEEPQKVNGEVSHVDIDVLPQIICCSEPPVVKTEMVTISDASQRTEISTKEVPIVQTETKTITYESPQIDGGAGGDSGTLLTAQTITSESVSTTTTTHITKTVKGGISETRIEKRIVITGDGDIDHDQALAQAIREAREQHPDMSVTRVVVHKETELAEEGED
UniProt P41091, whole entry, looked up: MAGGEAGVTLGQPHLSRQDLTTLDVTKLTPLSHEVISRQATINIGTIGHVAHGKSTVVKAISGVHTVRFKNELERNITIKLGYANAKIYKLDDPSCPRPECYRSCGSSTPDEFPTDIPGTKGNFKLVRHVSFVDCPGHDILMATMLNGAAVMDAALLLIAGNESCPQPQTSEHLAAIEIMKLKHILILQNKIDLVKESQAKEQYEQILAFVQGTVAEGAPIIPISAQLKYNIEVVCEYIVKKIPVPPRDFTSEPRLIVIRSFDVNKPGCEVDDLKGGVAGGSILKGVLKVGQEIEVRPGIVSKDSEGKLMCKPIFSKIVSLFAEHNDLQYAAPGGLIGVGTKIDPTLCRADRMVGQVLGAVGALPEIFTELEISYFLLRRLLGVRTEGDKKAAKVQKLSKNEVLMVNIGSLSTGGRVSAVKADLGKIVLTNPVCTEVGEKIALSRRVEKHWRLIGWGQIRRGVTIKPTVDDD

[1] = compound: CCCS(=O)(=O)Nc1ccc(F)c(C(=O)c2c[nH]c3ncc(Cl)cc23)c1F
In short: as §1

barasertib = compound: CCN(CCCOc1ccc2c(Nc3cc(CC(=O)Nc4cccc(F)c4)[nH]n3)ncnc2c1)CCOP(=O)(O)O [barasertib]
In short: as §1

[2] = compound: CC[C@@H]1C(=O)N(C)c2cnc(Nc3ccc(C(=O)NC4CCN(C)CC4)cc3OC)nc2N1C1CCCC1
In short: as §1

volasertib = compound: CC[C@@H]1C(=O)N(C)c2cnc(Nc3ccc(C(=O)N[C@H]4CC[C@H](N5CCN(CC6CC6)CC5)CC4)cc3OC)nc2N1C(C)C [volasertib]
In short: as §1

[3] = compound: CCn1c(C(=O)N(C2CC2)C2CC2)cc2c3c(ncn3C)c(Nc3cc(C)n(C)n3)nc21
In short: as §1

[4] = compound: CCn1cc(-c2ccnc3[nH]c(-c4cccc(CN(C)C)c4)cc23)c(-c2ccc(NC(=O)N(C)C)cc2)n1
In short: as §1

[5] = compound: CN1CCC(CNc2ccc3ncc(-c4cccc(OC(F)(F)F)c4)n3n2)CC1
In short: as §1

saracatinib = compound: CN1CCN(CCOc2cc(OC3CCOCC3)c3c(Nc4c(Cl)ccc5c4OCO5)ncnc3c2)CC1 [saracatinib]
In short: as §1

sotrastaurin = compound: CN1CCN(c2nc(C3=C(c4c[nH]c5ccccc45)C(=O)NC3=O)c3ccccc3n2)CC1 [sotrastaurin]
In short: as §1

alvocidib = compound: CN1CC[C@H](c2c(O)cc(O)c3c(=O)cc(-c4ccccc4Cl)oc23)[C@H](O)C1 [alvocidib]
In short: as §1

Tubastatin A = compound: CN1CCc2c(c3ccccc3n2Cc2ccc(C(=O)NO)cc2)C1 [Tubastatin A]
In short: as §1

[6] = compound: CNC(=O)C1=CC=CC=C1NC2=NC(=NC=C2Cl)NC3=C(C=C(C=C3)N4CCOCC4)OC
In short: as §1

defactinib = compound: CNC(=O)c1ccc(Nc2ncc(C(F)(F)F)c(NCc3nccnc3N(C)S(C)(=O)=O)n2)cc1 [defactinib]
In short: as §1

[7] = compound: CNc1nc(-c2ccc3c(N)n[nH]c3c2)cc(N2C[C@@H](C(=O)NC3CCCCC3)CC[C@H]2C)n1
In short: as §1

encorafenib = compound: COC(=O)N[C@@H](C)CNc1nccc(-c2cn(C(C)C)nc2-c2cc(Cl)cc(NS(C)(=O)=O)c2F)n1 [encorafenib]
In short: as §1

[8] = compound: COC(=O)[C@H](CCSC)NC(=O)C1=C(C=C(C=C1)NC[C@H](CS)N)C2=CC=CC=C2
In short: as §1

alisertib = compound: COc1cc(Nc2ncc3c(n2)-c2ccc(Cl)cc2C(c2c(F)cccc2OC)=NC3)ccc1C(=O)O [alisertib]
In short: as §1

[9] = compound: COc1cc2nc(-c3cc(F)ccc3O)nc(N[C@@H]3CNC[C@H]3C(C)(C)O)c2cc1OC
In short: as §1

gefitinib = compound: COc1cc2ncnc(Nc3ccc(F)c(Cl)c3)c2cc1OCCCN1CCOCC1 [gefitinib]
In short: as §1

Measured: log2 fold change

EPCAM (UniProt P16422)
inactive: vemurafenib 0.038 | [1] -0.005 | barasertib 0.005 | [2] 0.005 | volasertib 0.037 | [3] -0.046 | [4] 0 | [5] -0.007 | saracatinib 0.015 | sotrastaurin 0.077 | alvocidib 0.004 | Tubastatin A 0.046 | [6] -0.012 | defactinib -0.038 | [7] 0.01 | encorafenib 0.032 | [8] -0.076 | alisertib 0.008 | [9] -0.055 | gefitinib 0.028

ENDOD1 (UniProt O94919)
inactive: vemurafenib 0.026 | [1] -0.024 | barasertib 0.192 | [2] -0.002 | volasertib 0.027 | [3] 0.004 | [4] 0.081 | [5] -0.03 | saracatinib -0.015 | sotrastaurin 0.075 | alvocidib 0.068 | Tubastatin A 0.062 | [6] -0.01 | defactinib 0.008 | [7] 0.008 | encorafenib 0.029 | [8] -0.003 | alisertib -0.055 | [9] 0.033 | gefitinib 0.101

ELMO1 (UniProt Q92556)
inactive: vemurafenib 0.101 | [1] 0.081 | barasertib 0.111 | [2] -0.038 | volasertib -0.018 | [3] 0.039 | [4] -0.029 | [5] -0.024 | saracatinib 0.071 | sotrastaurin 0.082 | alvocidib -0.004 | Tubastatin A -0.056 | [6] -0.022 | defactinib 0.046 | [7] 0.05 | encorafenib 0.012 | [8] -0.034 | alisertib 0.111 | [9] 0.003 | gefitinib 0.271

EPHB4 (UniProt P54760)
inactive: vemurafenib 0.084 | [1] 0 | barasertib 0.102 | [2] 0.015 | volasertib -0.129 | [3] 0.019 | [4] 0.018 | [5] -0.012 | saracatinib 0.039 | sotrastaurin -0.098 | alvocidib -0.004 | Tubastatin A -0.012 | [6] 0.003 | defactinib 0.047 | [7] -0.036 | encorafenib -0.043 | [8] -0.18 | alisertib 0.012 | [9] 0.058

ERGIC3 isoform 3 (UniProt Q9Y282)
inactive: vemurafenib 0.08 | [1] 0.056 | barasertib 0.109 | [2] -0.021 | volasertib 0.009 | [3] 0.031 | [4] 0.012 | [5] -0.047 | saracatinib -0.028 | sotrastaurin 0.047 | alvocidib -0.025 | Tubastatin A 0.015 | [6] -0.06 | defactinib 0.106 | [7] -0.12 | encorafenib 0.019 | [8] -0.046 | alisertib 0.003 | [9] -0.031 | gefitinib 0.068

EIF2AK1 (UniProt Q9BQI3)
inactive: vemurafenib -0.004 | [1] -0.05 | barasertib 0.019 | [2] -0.016 | [3] -0.002 | [4] -0.001 | [5] -0.037 | saracatinib -0.019 | sotrastaurin 0 | alvocidib 0.044 | Tubastatin A -0.044 | [6] 0.068 | defactinib -0.021 | [7] -0.028 | encorafenib -0.004 | [8] 0.041 | alisertib -0.004 | [9] 0.122 | gefitinib 0.101
active: volasertib -0.287

EIF4A1 (UniProt P60842)
inactive: vemurafenib 0.006 | [1] 0.006 | barasertib -0.01 | [2] -0.016 | volasertib -0.027 | [3] -0.033 | [4] -0.045 | [5] -0.003 | saracatinib 0.006 | sotrastaurin -0.008 | alvocidib 0.011 | Tubastatin A 0.032 | [6] 0.001 | defactinib -0.018 | [7] 0.028 | encorafenib -0.016 | [8] 0.041 | alisertib 0.011 | [9] 0.024 | gefitinib -0.035

EIF3B isoform 2 (UniProt P55884)
inactive: vemurafenib -0.007 | [1] 0 | barasertib 0.003 | [2] -0.043 | volasertib -0.021 | [3] 0.008 | [4] 0 | [5] -0.007 | saracatinib -0.016 | sotrastaurin 0.01 | alvocidib 0 | Tubastatin A -0.013 | [6] 0.01 | defactinib -0.008 | [7] -0.03 | encorafenib -0.002 | [8] 0.054 | alisertib -0.013 | [9] -0.006 | gefitinib -0.006

EMG1 (UniProt Q92979)
inactive: vemurafenib 0.022 | [1] 0.014 | barasertib 0 | [2] -0.016 | volasertib -0.024 | [3] 0.052 | [4] -0.008 | [5] -0.005 | saracatinib -0.025 | sotrastaurin -0.016 | alvocidib -0.019 | Tubastatin A -0.036 | [6] 0 | defactinib -0.02 | [7] -0.011 | encorafenib -0.026 | [8] 0.042 | alisertib 0.001 | [9] -0.006 | gefitinib -0.017

ERCC3 (UniProt P19447)
inactive: vemurafenib -0.014 | [1] -0.009 | barasertib 0.11 | [2] -0.008 | volasertib 0.004 | [3] 0.016 | [4] -0.046 | [5] -0.096 | saracatinib -0.029 | sotrastaurin 0.021 | alvocidib 0.03 | Tubastatin A -0.048 | [6] 0.006 | defactinib 0.013 | [7] -0.013 | encorafenib 0.011 | [8] 0.033 | alisertib -0.057 | [9] 0.021 | gefitinib 0.039

ENDOG (UniProt Q14249)
inactive: vemurafenib -0.053 | [1] -0.004 | barasertib -0.037 | [2] -0.036 | volasertib -0.014 | [3] -0.019 | [4] -0.002 | [5] 0.013 | saracatinib -0.013 | sotrastaurin -0.006 | alvocidib 0.046 | Tubastatin A 0.035 | [6] -0.019 | defactinib -0.007 | [7] 0.032 | encorafenib 0.003 | [8] -0.081 | alisertib 0.019 | [9] 0.009 | gefitinib 0.038

Four consecutive records out of the list so far, quoted:
EIF4A1 (UniProt P60842)
inactive: vemurafenib 0.006 | [1] 0.006 | barasertib -0.01 | [2] -0.016 | volasertib -0.027 | [3] -0.033 | [4] -0.045 | [5] -0.003 | saracatinib 0.006 | sotrastaurin -0.008 | alvocidib 0.011 | Tubastatin A 0.032 | [6] 0.001 | defactinib -0.018 | [7] 0.028 | encorafenib -0.016 | [8] 0.041 | alisertib 0.011 | [9] 0.024 | gefitinib -0.035

EIF3B isoform 2 (UniProt P55884)
inactive: vemurafenib -0.007 | [1] 0 | barasertib 0.003 | [2] -0.043 | volasertib -0.021 | [3] 0.008 | [4] 0 | [5] -0.007 | saracatinib -0.016 | sotrastaurin 0.01 | alvocidib 0 | Tubastatin A -0.013 | [6] 0.01 | defactinib -0.008 | [7] -0.03 | encorafenib -0.002 | [8] 0.054 | alisertib -0.013 | [9] -0.006 | gefitinib -0.006

EMG1 (UniProt Q92979)
inactive: vemurafenib 0.022 | [1] 0.014 | barasertib 0 | [2] -0.016 | volasertib -0.024 | [3] 0.052 | [4] -0.008 | [5] -0.005 | saracatinib -0.025 | sotrastaurin -0.016 | alvocidib -0.019 | Tubastatin A -0.036 | [6] 0 | defactinib -0.02 | [7] -0.011 | encorafenib -0.026 | [8] 0.042 | alisertib 0.001 | [9] -0.006 | gefitinib -0.017

ERCC3 (UniProt P19447)
inactive: vemurafenib -0.014 | [1] -0.009 | barasertib 0.11 | [2] -0.008 | volasertib 0.004 | [3] 0.016 | [4] -0.046 | [5] -0.096 | saracatinib -0.029 | sotrastaurin 0.021 | alvocidib 0.03 | Tubastatin A -0.048 | [6] 0.006 | defactinib 0.013 | [7] -0.013 | encorafenib 0.011 | [8] 0.033 | alisertib -0.057 | [9] 0.021 | gefitinib 0.039

Additional records.

EIF4G2 (UniProt P78344)
inactive: vemurafenib 0.008 | [1] -0.025 | barasertib 0.066 | [2] -0.031 | volasertib -0.012 | [3] 0.07 | [4] -0.017 | [5] -0.01 | saracatinib 0.031 | sotrastaurin -0.034 | alvocidib 0.013 | Tubastatin A -0.09 | [6] -0.001 | defactinib 0.033 | [7] -0.036 | encorafenib 0.067 | [8] 0.048 | alisertib 0.028 | [9] 0.008 | gefitinib 0.004

EPB41L2 (UniProt O43491)
inactive: vemurafenib -0.009 | [1] 0.013 | barasertib 0.019 | [2] 0.001 | volasertib 0.003 | [3] -0.014 | [4] 0.09 | [5] -0.035 | saracatinib 0.025 | sotrastaurin -0.011 | alvocidib 0.025 | Tubastatin A 0.021 | [6] -0.007 | defactinib -0.003 | [7] 0.01 | encorafenib -0.01 | [8] -0.023 | alisertib -0.003 | [9] -0.003 | gefitinib -0.017

EP400 isoform 5 (UniProt Q96L91)
inactive: vemurafenib -0.021 | [1] -0.007 | barasertib -0.015 | [2] 0.044 | volasertib -0.042 | [3] -0.023 | [4] -0.007 | [5] 0.011 | saracatinib 0.01 | sotrastaurin -0.012 | alvocidib 0.015 | Tubastatin A -0.022 | [6] 0.037 | defactinib 0.01 | [7] 0.035 | encorafenib -0.028 | [8] 0.068 | alisertib 0.004 | [9] 0.023 | gefitinib -0.055

EIF2S3 (UniProt P41091)
inactive: vemurafenib -0.017 | [1] -0.015 | barasertib -0.019 | [2] 0.007 | volasertib 0.007 | [3] -0.025 | [4] 0.035 | [5] -0.04 | saracatinib -0.023 | sotrastaurin -0.018 | alvocidib 0 | Tubastatin A 0.032 | [6] 0.001 | defactinib -0.054 | [7] 0.03 | encorafenib -0.013 | [8] -0.013 | alisertib 0.014 | [9] -0.009 | gefitinib -0.014

ENO1 isoform 2 (UniProt P06733)
inactive: vemurafenib 0.02 | [1] -0.005 | barasertib -0.09 | [2] 0.073 | volasertib 0.004 | [3] -0.021 | [4] -0.263 | saracatinib 0.01 | sotrastaurin 0.01 | alvocidib -0.174 | Tubastatin A 0.085 | [6] -0.13 | defactinib -0.001 | [7] 0.009 | encorafenib 0.033 | [8] -0.033 | alisertib 0.022 | [9] -0.004 | gefitinib -0.015
active: [5] 0.269

Reference: the supplement of paper PMC10849652
